Source: US20240000745A1, “COMPOSITIONS AND METHODS USING A COMBINATION OF OLEUROPEIN AND QUERCETIN FOR CELLULAR ENERGY” (SOCIETE DES PRODUITS NESTLE S.A., priority 2020, published 2024)
For at least one compound, name, drawing or mass did not settle the structure.

Test system: HeLa cells
Experiment: Mitochondrial calcium elevation in histamine-stimulated HeLa cells (mitochondrially targeted aequorin luminescence)
Type: cell-based
Method: To test the effect of oleuropein (or oleuropein aglycone), quercetin and their combination in living cells, the inventors measured mitochondrial calcium elevation in HeLa cells. HeLa cells were purchased from ATCC. HeLa cells were seeded in 96-well plates at a density of 50000 cells per well in minimal essential medium (DMEM, Gibco), high glucose, +10% fetal calf serum.
Mitochondrial calcium measurements were carried out using Hela cells infected with the adenovirus (from Sirion biotech) expressing the mitochondrially targeted calcium sensor mitochondrial mutated aequorin (Montero et al., 2004). For aequorin reconstitution, 24 hours after infection, cells were incubated for 2 h at room temperature (22±° C.) in standard medium (145 mM NaCl, 5 mM KCl, 1 mM MgCl2, 1 mM CaCl2, 10 mM glucose and 10 mM Hepes, pH 7.4) with 1 μM wild-type coelenterazine.
For treatment, compounds were directly added to the cell culture or myotubes cultures 2 hours before measurements. Luminescence was measured at the FLIPR Tetra Aequorin (Molecular Devices). Mitochondrial calcium rise was obtained by stimulating the cells with 100 µM histamine. Calibration of the luminescence data into calcium concentration was carried out using an algorithm, as described previously (Alvarez & Montero, 2002). Custom module analysis based on Excel (Microsoft) and GhaphPad Prism 7.02 (GraphPad) software was used for quantification.

What does the source list for `C/C=C1/[C@H](O[C@@H]2O[C@H](CO)[C@@H](O)[C@H](O)[C@H]2O)OC=C(C(=O)OC)[C@H]1CC(=O)OCCc1ccc(O)c(O)c1` [oleuropein]?
synergism with quercetin to activate mitochondria via mitochondrial Ca2+ rise (measured effect of the combination vs. theoretical sum of the single effects) (3 μM + 3 μM quercetin, integrated mitochondrial calcium rise evoked by 100 μM histamine, HeLa cells, compounds added 2 hours before measurement, P<0.05): synergizes with quercetin; synergism of oleuropein with oleuropein aglycone to activate mitochondria via mitochondrial Ca2+ rise (3 μM Ole + 3 μM Oea, integrated mitochondrial calcium rise evoked by 100 μM histamine, HeLa cells): does not synergize with oleuropein aglycone; level of synergism in combination with quercetin, compared between oleuropein and oleuropein aglycone (synergisms calculated as in FIG. 1 and FIG. 2, n=6, NS at P<0.05 (Student's t-test)): same level of synergism
